{"source": "patent US20060182771A1", "about": "“Formulations for ocular treatment” (priority 2005, published 2006)", "origin": "cited, not measured here", "key": {"[1]": {"test_system": "Matrigel™ and laser-induced CNV", "conditions": "cited from earlier work"}, "CNV [2]": {"test_system": "CNV", "conditions": "delivering rapamycin to a human in order to inhibit CNV; cited from earlier work"}, "CNV [3]": {"test_system": "CNV", "conditions": "rat and mice models, as described in U.S. application Ser. No. 10/665,203; cited from earlier work"}}, "note": "At least one compound was matched to its structure with a doubt left."}
{"compound": "CO[C@H]1C[C@@H]2CC[C@@H](C)[C@@](O)(O2)C(=O)C(=O)N2CCCC[C@H]2C(=O)O[C@H]([C@H](C)C[C@@H]2CC[C@@H](O)[C@H](OC)C2)CC(=O)[C@H](C)/C=C(\\C)[C@@H](O)[C@@H](OC)C(=O)[C@H](C)C[C@H](C)/C=C/C=C/C=C/1C", "note": "[rapamycin]", "values": [{"measurement": "inhibition of Matrigel and laser-induced CNV", "setting": "[1]; administered systemically and subretinally", "result": "inhibit"}, {"measurement": "inhibition of laser-induced CNV", "setting": "[1]; periocular injection", "result": "inhibits"}, {"measurement": "inhibiting amount at the tissue level", "setting": "CNV [2]", "result": "about 10 ng/ml"}, {"measurement": "inhibition of CNV", "setting": "CNV [3]", "result": "inhibit CNV"}]}
